From paper PMC4396377
Results are given in words; binding and its absence hold for the method and conditions named. For some assays here: Binding seen in cells or lysates may run through a third protein. Some entries that bind do so weakly or less than the wild type.

How the values were obtained:
[1] = target: T1, Toll-like receptor 3 (TLR3), endogenous (mouse (endogenous in MEFs, RAW264.7 and BMDMs)) (UniProt Q99MB1); experiment: co-IP; Gsk3b+/+ MEFs stimulated with 10 μg/ml poly I:C for 10 min; immunoprecipitation with an anti-TLR3 antibody, western blotting; lysis buffer 50 mM Tris-HCl pH 8.0, 150 mM NaCl, 0.5% deoxycholate, 1% NP-40; 4 °C
T1 sequence: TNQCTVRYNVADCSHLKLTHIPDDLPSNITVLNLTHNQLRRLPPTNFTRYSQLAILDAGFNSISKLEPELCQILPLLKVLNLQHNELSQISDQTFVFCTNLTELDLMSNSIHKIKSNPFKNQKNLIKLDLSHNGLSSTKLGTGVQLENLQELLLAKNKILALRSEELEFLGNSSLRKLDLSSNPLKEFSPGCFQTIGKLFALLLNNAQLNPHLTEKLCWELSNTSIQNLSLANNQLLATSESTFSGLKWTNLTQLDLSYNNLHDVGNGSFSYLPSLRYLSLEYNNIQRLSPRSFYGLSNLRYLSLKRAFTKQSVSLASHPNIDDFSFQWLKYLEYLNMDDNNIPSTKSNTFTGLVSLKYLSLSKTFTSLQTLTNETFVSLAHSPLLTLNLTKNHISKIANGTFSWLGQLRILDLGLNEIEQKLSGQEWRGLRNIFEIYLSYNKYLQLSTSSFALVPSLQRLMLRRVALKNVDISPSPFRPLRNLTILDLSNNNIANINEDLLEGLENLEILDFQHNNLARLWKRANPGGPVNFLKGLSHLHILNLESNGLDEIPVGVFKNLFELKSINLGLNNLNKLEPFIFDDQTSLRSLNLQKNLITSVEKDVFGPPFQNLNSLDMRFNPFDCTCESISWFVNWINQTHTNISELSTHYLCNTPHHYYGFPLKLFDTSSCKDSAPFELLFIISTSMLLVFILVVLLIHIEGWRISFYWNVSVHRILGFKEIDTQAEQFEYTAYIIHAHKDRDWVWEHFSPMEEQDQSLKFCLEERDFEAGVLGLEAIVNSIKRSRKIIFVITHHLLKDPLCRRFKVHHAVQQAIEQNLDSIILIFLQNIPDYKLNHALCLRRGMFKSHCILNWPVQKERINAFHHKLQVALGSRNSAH

[2] = target: T2, IFN regulatory factor 3 (IRF3), endogenous (mouse (endogenous in MEFs)), P70671; experiment: native gel or EMSA; Gsk3b+/+ and Gsk3b−/− MEFs stimulated with 10 μg/ml poly I:C for 1 h; lysates on 7.5% native gels with deoxycholate, blotted; Supplementary Fig. 4c; settings: remark: other sources report otherwise
T2 chain: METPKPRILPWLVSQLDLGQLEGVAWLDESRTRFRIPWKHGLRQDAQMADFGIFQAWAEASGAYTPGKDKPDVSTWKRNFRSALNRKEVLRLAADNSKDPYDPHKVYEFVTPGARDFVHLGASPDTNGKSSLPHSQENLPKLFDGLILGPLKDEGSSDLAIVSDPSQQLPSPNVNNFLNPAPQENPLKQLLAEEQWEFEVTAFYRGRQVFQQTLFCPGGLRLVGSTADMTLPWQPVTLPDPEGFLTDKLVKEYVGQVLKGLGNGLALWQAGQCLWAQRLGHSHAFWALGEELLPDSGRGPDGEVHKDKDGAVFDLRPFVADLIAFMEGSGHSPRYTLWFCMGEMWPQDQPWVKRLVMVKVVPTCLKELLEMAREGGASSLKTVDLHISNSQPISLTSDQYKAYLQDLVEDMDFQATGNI

Row | Binder | binding [1] | binding [2]
1 | toll-interleukin 1 receptor homology-domain-containing adapter-inducing interferon-β (TRIF), endogenous (protein, UniProt Q80UF7 1-732) MDNPGPSLRGAFGILGALERDRLTHLKHKLGSLCSGSQESKLLHAMVLLALGQDTEARVSLESLKMNTVAQLVAHQWADMETTEGPEEPPDLSWTVARLYHLLAEENLCPASTRDMAYQVALRDFASQGDHQLGQLQNEAWDRCSSDIKGDPSGFQPLHSHQGSLQPPSASPAVTRSQPRPIDTPDWSWGHTLHSTNSTASLASHLEISQSPTLAFLSSHHGTHGPSKLCNTPLDTQEPQLVPEGCQEPEEISWPPSVETSVSLGLPHEISVPEVSPEEASPILPDALAAPDTSVHCPIECTELSTNSRSPLTSTTESVGKQWPITSQRSPQVPVGDDSLQNTTSSSPPAQPPSLQASPKLPPSPLSSASSPSSYPAPPTSTSPVLDHSETSDQKFYNFVVIHARADEQVALRIREKLETLGVPDGATFCEEFQVPGRGELHCLQDAIDHSGFTILLLTASFDCSLSLHQINHALMNSLTQSGRQDCVIPLLPLECSQAQLSPDTTRLLHSIVWLDEHSPIFARKVANTFKTQKLQAQRVRWKKAQEARTLKEQSIQLEAERQNVAAISAAYTAYVHSYRAWQAEMNKLGVAFGKNLSLGTPTPSWPGCPQPIPSHPQGGTPVFPYSPQPPSFPQPPCFPQPPSFPQPPSFPLPPVSSPQSQSFPSASSPAPQTPGPQPLIIHHAQMVQLGVNNHMWGHTGAQSSDDKTECSENPCMGPLTDQGEPLLETPE | binds | –
2 | IFN regulatory factor 3 (IRF3), endogenous, P70671 1-419 (protein) METPKPRILPWLVSQLDLGQLEGVAWLDESRTRFRIPWKHGLRQDAQMADFGIFQAWAEASGAYTPGKDKPDVSTWKRNFRSALNRKEVLRLAADNSKDPYDPHKVYEFVTPGARDFVHLGASPDTNGKSSLPHSQENLPKLFDGLILGPLKDEGSSDLAIVSDPSQQLPSPNVNNFLNPAPQENPLKQLLAEEQWEFEVTAFYRGRQVFQQTLFCPGGLRLVGSTADMTLPWQPVTLPDPEGFLTDKLVKEYVGQVLKGLGNGLALWQAGQCLWAQRLGHSHAFWALGEELLPDSGRGPDGEVHKDKDGAVFDLRPFVADLIAFMEGSGHSPRYTLWFCMGEMWPQDQPWVKRLVMVKVVPTCLKELLEMAREGGASSLKTVDLHISNSQPISLTSDQYKAYLQDLVEDMDFQATGNI | – | binds
